Source: article doi:10.1101/2021.10.01.462752

Target: FLAG-tagged JADE1S (not stated (previously described JADE1S cDNA; murine Jade1S cDNA was also cloned))
Assay: co-IP

- binding: binds
B1: V5-tagged NPHP4 (protein, UniProt O75161 1-1426)
chain: MNDWHRIFTQNVLVPPHPQRARQPWKESTAFQCVLKWLDGPVIRQGVLEVLSEVECHLRVSFFDVTYRHFFGRTWKTTVKPTKRPPSRIVFNEPLYFHTSLNHPHIVAVVEVVAEGKKRDGSLQTLSCGFGILRIFSNQPDSPISASQDKRLRLYHGTPRALLHPLLQDPAEQNRHMTLIENCSLQYTLKPHPALEPAFHLLPENLLVSGLQQIPGLLPAHGESGDALRKPRLQKPITGHLDDLFFTLYPSLEKFEEELLELHVQDHFQEGCGPLDGGALEILERRLRVGVHNGLGFVQRPQVVVLVPEMDVALTRSASFSRKVVSSSKTSSGSQALVLRSRLRLPEMVGHPAFAVIFQLEYVFSSPAGVDGNAASVTSLSNLACMHMVRWAVWNPLLEADSGRVTLPLQGGIQPNPSHCLVYKVPSASMSSEEVKQVESGTLRFQFSLGSEEHLDAPTEPVSGPKVERRPSRKPPTSPSSPPAPVPRVLAAPQNSPVGPGLSISQLAASPRSPTQHCLARPTSQLPHGSQASPAQAQEFPLEAGISHLEADLSQTSLVLETSIAEQLQELPFTPLHAPIVVGTQTRSSAGQPSRASMVLLQSSGFPEILDANKQPAEAVSATEPVTFNPQKEESDCLQSNEMVLQFLAFSRVAQDCRGTSWPKTVYFTFQFYRFPPATTPRLQLVQLDEAGQPSSGALTHILVPVSRDGTFDAGSPGFQLRYMVGPGFLKPGERRCFARYLAVQTLQIDVWDGDSLLLIGSAAVQMKHLLRQGRPAVQASHELEVVATEYEQDNMVVSGDMLGFGRVKPIGVHSVVKGRLHLTLANVGHPCEQKVRGCSTLPPSRSRVISNDGASRFSGGSLLTTGSSRRKHVVQAQKLADVDSELAAMLLTHARQGKGPQDVSRESDATRRRKLERMRSVRLQEAGGDLGRRGTSVLAQQSVRTQHLRDLQVIAAYRERTKAESIASLLSLAITTEHTLHATLGVAEFFEFVLKNPHNTQHTVTVEIDNPELSVIVDSQEWRDFKGAAGLHTPVEEDMFHLRGSLAPQLYLRPHETAHVPFKFQSFSAGQLAMVQASPGLSNEKGMDAVSPWKSSAVPTKHAKVLFRASGGKPIAVLCLTVELQPHVVDQVFRFYHPELSFLKKAIRLPPWHTFPGAPVGMLGEDPPVHVRCSDPNVICETQNVGPGEPRDIFLKVASGPSPEIKDFFVIIYSDRWLATPTQTWQVYLHSLQRVDVSCVAGQLTRLSLVLRGTQTVRKVRAFTSHPQELKTDPKGVFVLPPRGVQDLHVGVRPLRAGSRFVHLNLVDVDCHQLVASWLVCLCCRQPLISKAFEIMLAAGEGKGVNKRITYTNPYPSRRTFHLHSDHPELLRFREDSFQVGGGETYTIGLQFAPSQRVGEEEILIYINDHEDKNEEAFCVKVIYQ

No constants are given. Whether binding was seen depends on the method and setting. In cells and extracts the contact can be indirect. Binding calls can cover weak binding; strength is not graded here. Sequences can lack the tags named with a protein.
